Test results reported in PubChem BioAssay AID256 (DTP/NCI, 2004).
The list does not hold the whole screen: it gathers tests that were run many times, whatever their T/C, doses with no T/C, and many T/C values between a quarter and a half above the control. Other doses and runs of a compound stand elsewhere. T/C gives the treated animals as a percentage of the vehicle group. Some doses have a count of surviving animals in place of a T/C: the source holds a T/C of zero for them, seemingly a mark for toxic or unscored doses. Some doses without a T/C left all or most animals alive at the check, yet need not have been tolerated: survival well below the control is almost never listed, so the zero probably covers shortened survival too. Survivors were counted at the toxicity check, usually on the fifth day, unless a day is given; later deaths do not show. Schedules are NCI's codes, taken here to give the interval after Q, in days (D) or hours (H), and the number of doses after X. Some entries hold several experiments; the values are given in rising order. For survival time, the PubChem record calls one and a half times the control and up active, and a quarter to a half above the control has no call in these data; cut-offs in other NCI protocols can differ. Some T/C values carry the count of animals alive at the toxicity check (mostly the fifth day); without a count, all were alive then.

Tested on: CD2F1 mice, L1210 leukemia ip, survival T/C
Assay: NCI In Vivo Anticancer Drug Screen. Data for tumor model L1210 Leukemia (intraperitoneal) in CD2F1 (CDF1) mice
Conditions: higher T/C = longer survival
Summary of the method: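 Ratio T/C, where T is the treated-group value and C the vehicle-dosed control value, from mice implanted with a transplantable tumor.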

[1] = T/C endpoint: mean survival time, dose: 100.0 mg/kg/injection, schedule: Q01DX009 (ip), vehicle: saline with Tween-80
[2] = T/C endpoint: mean survival time, dose: 200.0 mg/kg/injection, schedule: Q01DX009 (ip), vehicle: saline with Tween-80
[3] = T/C endpoint: mean survival time, dose: 200.0 mg/kg/injection, schedule: Q04DX002 (ip), vehicle: saline with Tween-80
[4] = T/C endpoint: mean survival time, dose: 400.0 mg/kg/injection, schedule: Q04DX002 (ip), vehicle: saline with Tween-80
[5] = T/C endpoint: mean survival time, dose: 400.0 mg/kg/injection, schedule: Q01DX009 (ip), vehicle: saline with Tween-80
[6] = T/C endpoint: mean survival time, dose: 400.0 mg/kg/injection, schedule: Q01DX001 (ip), vehicle: other
[7] = T/C endpoint: mean survival time, dose: 400.0 mg/kg/injection, schedule: Q01DX001 (ip), vehicle: saline with Tween-80
[8] = T/C endpoint: mean survival time, dose: 400.0 mg/kg/injection, schedule: Q04DX003 (ip), vehicle: saline with Tween-80
[9] = T/C endpoint: mean survival time, dose: 200.0 mg/kg/injection, schedule: Q04DX002 (ip), vehicle: other
[10] = T/C endpoint: mean survival time, dose: 200.0 mg/kg/injection, schedule: Q04DX003 (ip), vehicle: saline with Tween-80

SMILES: CCC(C(C)N1CC(=O)NC(=O)C1)N1CC(=O)NC(=O)C1 (stereo not drawn)
- T/C (T/C endpoint: mean survival time, dose: 0.25 mg/kg/injection, schedule: Q01DX009 (ip), vehicle: Klucel (hydroxypropylcellulose) (HPC)): 142 % of control
- T/C (T/C endpoint: mean survival time, dose: 0.5 mg/kg/injection, schedule: Q01DX009 (ip), vehicle: Klucel (hydroxypropylcellulose) (HPC)): 139 % of control
- survivor count (T/C endpoint: mean survival time, dose: 4.0 mg/kg/injection, schedule: Q01DX009 (ip), vehicle: Klucel (hydroxypropylcellulose) (HPC)): 10 of 10
- survivor count (T/C endpoint: mean survival time, dose: 8.0 mg/kg/injection, schedule: Q01DX009 (ip), vehicle: Klucel (hydroxypropylcellulose) (HPC)): 7 of 10
- survivor count (T/C endpoint: mean survival time, dose: 16.0 mg/kg/injection, schedule: Q04DX003 (ip), vehicle: Klucel (hydroxypropylcellulose) (HPC)): 8 of 10
- survivor count (T/C endpoint: mean survival time, dose: 32.0 mg/kg/injection, schedule: Q04DX003 (ip), vehicle: Klucel (hydroxypropylcellulose) (HPC)): 1 of 10
- survivor count (T/C endpoint: mean survival time, dose: 64.0 mg/kg/injection, schedule: Q04DX003 (ip), vehicle: Klucel (hydroxypropylcellulose) (HPC)): 4 of 10

SMILES: C[N+](C)(C)/N=C\c1cccc2ccccc12
- survivor count (T/C endpoint: mean survival time, dose: 50.0 mg/kg/injection, schedule: Q01DX009 (ip), vehicle: saline with Tween-80): 0 of 3
- survivor count [1]: 0 of 3
- survivor count [2]: 0 of 3

SMILES: C=C(OP(=O)(OC)OC)Sc1ccccc1C
- survivor count (T/C endpoint: median survival time, dose: 1.5 mg/kg/injection, schedule: Q01DX009 (ip), vehicle: Klucel (hydroxypropylcellulose) (HPC)): 4 of 6
- survivor count (T/C endpoint: median survival time, dose: 3.0 mg/kg/injection, schedule: Q01DX009 (ip), vehicle: Klucel (hydroxypropylcellulose) (HPC)): 0 of 6
- survivor count (T/C endpoint: median survival time, dose: 6.0 mg/kg/injection, schedule: Q01DX009 (ip), vehicle: Klucel (hydroxypropylcellulose) (HPC)): 0 of 6

SMILES: CC(C)(C[P+](C)(c1ccccc1)c1ccccc1)c1ccccc1
- survivor count [3]: 3 of 3
- survivor count [4]: 0 of 3

SMILES: CCC(C1=NC(C)(C)CC(C)O1)c1ccccc1 (stereo not drawn) (tested in a mixture with another compound)
- survivor count [5]: 0 of 6

SMILES: COc1c(C)ccc2c1CCN1C3=C(CCC21)CC1(CC3)OCCO1 (stereo not drawn)
- survivor count [5]: 3 of 6

SMILES: Nc1nc(N)c2nc(CNc3ccc(C(=O)NC(CCC(=O)NC(CCC(=O)O)C(=O)O)C(=O)O)cc3)cnc2n1 (stereo not drawn)
- survivor count (T/C endpoint: mean survival time, dose: 1.7 mg/kg/injection, schedule: Q01DX009 (ip), vehicle: sodium bicarbonate): 5 of 6
- survivor count (T/C endpoint: mean survival time, dose: 2.6 mg/kg/injection, schedule: Q01DX009 (ip), vehicle: sodium bicarbonate): 5 of 6
- survivor count (T/C endpoint: mean survival time, dose: 4.0 mg/kg/injection, schedule: Q01DX009 (ip), vehicle: sodium bicarbonate): 6 of 6
- survivor count (T/C endpoint: mean survival time, dose: 6.0 mg/kg/injection, schedule: Q01DX009 (ip), vehicle: sodium bicarbonate): 5 of 6

SMILES: Cc1ccnc(NC2=CC(=O)C(=O)c3ccccc32)c1
- survivor count (T/C endpoint: mean survival time, dose: 400.0 mg/kg/injection, schedule: Q01DX009 (ip), vehicle: saline sonified): 3 of 6

SMILES: CCC(=O)c1ccc2c(c1)N(CCCN1CCN(CCO)CC1)c1ccccc1S2
- survivor count (T/C endpoint: mean survival time, dose: 50.0 mg/kg/injection, schedule: Q04DX003 (ip), vehicle: Klucel (hydroxypropylcellulose) (HPC)): 3 of 6
- survivor count (T/C endpoint: mean survival time, dose: 200.0 mg/kg/injection, schedule: Q04DX003 (ip), vehicle: Klucel (hydroxypropylcellulose) (HPC)): 4 of 6

SMILES: O=NN(CCOS(=O)(=O)c1ccc(Br)cc1)C(=O)NC1CCCCC1
- survivor count [6]: 0 of 6

SMILES: N=C(N)c1ccc(Nc2ccc(-c3cc4ccc(C(=N)N)cc4[nH]3)cc2)cc1
- T/C (T/C endpoint: median survival time, dose: 1.87 mg/kg/injection, schedule: Q01DX005 (ip), vehicle: saline): 141 % of control
- T/C (T/C endpoint: median survival time, dose: 2.7 mg/kg/injection, schedule: Q01DX005 (ip), vehicle: saline): 137 % of control
- survivor count (T/C endpoint: median survival time, dose: 15.0 mg/kg/injection, schedule: Q01DX005 (ip), vehicle: saline): 6 of 6
- survivor count (T/C endpoint: median survival time, dose: 30.0 mg/kg/injection, schedule: Q01DX005 (ip), vehicle: saline): 3 of 6

SMILES: O=S(=O)(F)c1ccc(C[P+](c2ccccc2)(c2ccccc2)c2ccccc2)c(Cl)c1
- survivor count (T/C endpoint: mean survival time, dose: 75.0 mg/kg/injection, schedule: Q01DX009 (ip), vehicle: saline): 3 of 6
- survivor count (T/C endpoint: mean survival time, dose: 150.0 mg/kg/injection, schedule: Q01DX001 (ip), vehicle: saline): 0 of 6
- survivor count (T/C endpoint: mean survival time, dose: 300.0 mg/kg/injection, schedule: Q01DX001 (ip), vehicle: saline): 0 of 6

SMILES: CCCCCCCCCCCCCCCCCC[N+](CCO)(CCO)Cc1ccc(C[N+](CCO)(CCO)CCCCCCCCCCCCCCCCCC)cc1
- survivor count (T/C endpoint: mean survival time, dose: 100.0 mg/kg/injection, schedule: Q04DX002 (ip), vehicle: saline with Tween-80): 0 of 3
- survivor count [3]: 1 of 3
- survivor count [4]: 0 of 3

SMILES: N#CCN(CC#N)c1ccccc1
- survivor count (T/C endpoint: mean survival time, dose: 12.5 mg/kg/injection, schedule: Q01DX001 (ip), vehicle: other): 1 of 3
- survivor count (T/C endpoint: mean survival time, dose: 25.0 mg/kg/injection, schedule: Q01DX001 (ip), vehicle: other): 0 of 3
- survivor count (T/C endpoint: mean survival time, dose: 100.0 mg/kg/injection, schedule: Q01DX001 (ip), vehicle: other): 0 of 3
- survivor count (T/C endpoint: mean survival time, dose: 200.0 mg/kg/injection, schedule: Q01DX001 (ip), vehicle: other): 0 of 3
- survivor count [6]: 0 of 3

SMILES: CC(=O)Oc1ccc[nH]c1=O
- T/C (T/C endpoint: mean survival time, dose: 300.0 mg/kg/injection, schedule: Q01DX009 (ip), vehicle: saline): 142 and 143 % of control
- T/C (T/C endpoint: mean survival time, dose: 500.0 mg/kg/injection, schedule: Q01DX009 (ip), vehicle: saline): 129 [5 of 6 alive] and 144 % of control
- T/C (T/C endpoint: median survival time, dose: 266.0 mg/kg/injection, schedule: Q03HX027 (ip), vehicle: saline with Tween-80): 129 and 136 % of control
- T/C (T/C endpoint: median survival time, dose: 400.0 mg/kg/injection, schedule: Q01DX009 (ip), vehicle: saline with Tween-80): 125, 137, 144 % of control
- survivor count (T/C endpoint: median survival time, dose: 532.0 mg/kg/injection, schedule: Q03HX027 (ip), vehicle: saline with Tween-80): 0 of 6
- survivor count (T/C endpoint: median survival time, dose: 800.0 mg/kg/injection, schedule: Q01DX009 (ip), vehicle: saline with Tween-80): 2 of 6 and 3 of 6

SMILES: C=CN1CCCC1=O
- survivor count (T/C endpoint: median survival time, dose: 7.5 grams/kg/injection, schedule: Q03HX016 (ip), vehicle: saline): 4 of 10
- survivor count (T/C endpoint: median survival time, dose: 7.5 grams/kg/injection, schedule: Q03HX024 (ip), vehicle: saline): 5 of 10

SMILES: COc1ccc2nc3cc(Cl)ccc3c(NCCC[N+](C)(C)CCCCCCCCCCCCCCCC[N+](C)(C)CCCNc3c4ccc(Cl)cc4nc4ccc(OC)cc34)c2c1
- survivor count (T/C endpoint: mean survival time, dose: 100.0 mg/kg/injection, schedule: Q01DX009 (ip), vehicle: other): 0 of 6
- survivor count (T/C endpoint: mean survival time, dose: 200.0 mg/kg/injection, schedule: Q01DX009 (ip), vehicle: other): 0 of 6
- survivor count (T/C endpoint: mean survival time, dose: 400.0 mg/kg/injection, schedule: Q01DX009 (ip), vehicle: other): 0 of 6

SMILES: CC(=O)Nc1ccc(S(=O)(=O)F)cc1
- survivor count [2]: 1 of 6
- survivor count [7]: 0 of 3
- survivor count [8]: 2 of 6

SMILES: O=S(=O)(SC(Cl)(Cl)Cl)c1ccc(Cl)cc1
- survivor count (T/C endpoint: mean survival time, dose: 200.0 mg/kg/injection, schedule: Q01DX001 (ip), vehicle: saline with Tween-80): 1 of 6
- survivor count [7]: 0 of 6

SMILES: NC(=S)N/N=C/c1ccc(OC(F)(F)F)cn1
- survivor count [9]: 2 of 3

SMILES: CC1(c2ccccc2)C(C#N)C(=O)NC(=O)C1C#N (stereo not drawn)
- survivor count [5]: 3 of 6

SMILES: CC(=O)OC1CCCCCCCCCCC12OCCO2 (stereo not drawn)
- T/C [9]: 125 % of control

SMILES: COP(=O)(OC)OCC1OC(n2ccc(N)nc2=O)C(O)C1O (stereo not drawn)
- T/C (T/C endpoint: median survival time, dose: 200.0 mg/kg/injection, schedule: Q01DX005 (ip), vehicle: saline): 129 % of control
- T/C (T/C endpoint: median survival time, dose: 400.0 mg/kg/injection, schedule: Q01DX005 (ip), vehicle: saline): 129 % of control

SMILES: CCCCCCCCC/C(C)=N\NC(=O)c1ccccc1
- survivor count (T/C endpoint: mean survival time, dose: 200.0 mg/kg/injection, schedule: Q01DX009 (ip), vehicle: saline sonified): 3 of 6

SMILES: CCOC(=O)/C(C#N)=C(\C)c1cccc(C)c1
- survivor count [10]: 6 of 6
- survivor count [8]: 5 of 6

SMILES: COc1cccc2c1CCN1C3=C(CC(OC)CC3)C(=O)CC21 (stereo not drawn)
- survivor count [10]: 0 of 6
- survivor count [8]: 0 of 6

SMILES: O=C1NC(=O)C(=C/C=C/c2ccccc2)C(=O)N1
- survivor count [1]: 3 of 3
- survivor count [2]: 1 of 3
